Binding data for 1 substance are collected here from publication PMC4214723.

Amino acid sequences for entries named in this document (tags omitted). Residues count along the entry.
UniProt C0LGT6, residues 25-1031: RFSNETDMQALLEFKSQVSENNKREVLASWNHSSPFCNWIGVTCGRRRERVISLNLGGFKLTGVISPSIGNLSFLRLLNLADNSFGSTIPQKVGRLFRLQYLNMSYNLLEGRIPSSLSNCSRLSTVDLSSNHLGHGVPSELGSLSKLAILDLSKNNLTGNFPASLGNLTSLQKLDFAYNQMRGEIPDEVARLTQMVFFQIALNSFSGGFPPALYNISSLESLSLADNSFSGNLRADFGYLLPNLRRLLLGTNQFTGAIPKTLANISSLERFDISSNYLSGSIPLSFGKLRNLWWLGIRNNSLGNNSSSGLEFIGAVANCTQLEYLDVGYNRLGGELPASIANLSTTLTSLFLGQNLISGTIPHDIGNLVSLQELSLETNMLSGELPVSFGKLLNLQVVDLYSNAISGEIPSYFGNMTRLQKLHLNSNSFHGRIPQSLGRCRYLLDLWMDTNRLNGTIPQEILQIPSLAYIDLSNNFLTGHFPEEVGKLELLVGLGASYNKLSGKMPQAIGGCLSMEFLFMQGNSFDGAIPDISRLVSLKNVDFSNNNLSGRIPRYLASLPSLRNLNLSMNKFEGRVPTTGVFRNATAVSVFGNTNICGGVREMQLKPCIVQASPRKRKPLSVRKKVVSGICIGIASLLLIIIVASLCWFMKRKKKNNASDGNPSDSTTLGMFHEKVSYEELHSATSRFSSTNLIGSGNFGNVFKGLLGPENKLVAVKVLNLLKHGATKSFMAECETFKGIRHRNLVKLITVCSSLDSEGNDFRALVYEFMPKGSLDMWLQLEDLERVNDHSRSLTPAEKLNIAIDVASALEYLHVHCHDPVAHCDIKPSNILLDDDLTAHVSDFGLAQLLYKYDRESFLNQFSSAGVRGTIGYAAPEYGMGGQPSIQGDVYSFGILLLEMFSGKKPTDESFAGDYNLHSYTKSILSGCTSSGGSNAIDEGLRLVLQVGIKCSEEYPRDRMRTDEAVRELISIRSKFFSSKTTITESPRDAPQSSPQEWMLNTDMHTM

No constants are given. Whether binding was seen depends on the method and setting. In cells and extracts the contact can be indirect. Some results given as binding are weak or reduced against the parent protein; the word gives no strength. Sequences can lack the tags named with a protein.

This assay concerns the target T1, BAK1-Myc (Arabidopsis) (UniProt Q94F62).
T1 sequence: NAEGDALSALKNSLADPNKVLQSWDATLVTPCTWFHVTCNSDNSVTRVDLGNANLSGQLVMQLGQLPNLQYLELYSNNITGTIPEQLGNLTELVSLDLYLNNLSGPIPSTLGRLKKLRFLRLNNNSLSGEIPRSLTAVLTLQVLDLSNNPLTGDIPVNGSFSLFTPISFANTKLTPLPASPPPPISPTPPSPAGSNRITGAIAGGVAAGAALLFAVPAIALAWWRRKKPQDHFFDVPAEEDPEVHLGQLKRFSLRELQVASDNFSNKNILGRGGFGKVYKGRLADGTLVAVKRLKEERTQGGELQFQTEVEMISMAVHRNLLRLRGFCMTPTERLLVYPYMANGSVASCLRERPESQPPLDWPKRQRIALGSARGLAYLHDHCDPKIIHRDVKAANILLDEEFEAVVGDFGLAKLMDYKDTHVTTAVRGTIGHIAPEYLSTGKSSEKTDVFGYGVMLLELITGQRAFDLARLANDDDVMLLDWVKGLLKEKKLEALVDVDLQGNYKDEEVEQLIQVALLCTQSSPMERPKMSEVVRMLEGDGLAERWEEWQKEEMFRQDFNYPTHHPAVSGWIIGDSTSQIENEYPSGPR
In words: co-IP.

For “EFR-HA (full-length, wild type) (from UniProt C0LGT6 25-1031) (receptor)”, the binding entry is recorded as “binds”.
